Measurements from “University of Dundee, Small-Polar-MMV Screening Library” (2021), ChEMBL document CHEMBL3988442.

Amino acid sequences for entries named in this document (tags omitted). Residues count along the entry.
UniProt Q8IDJ8, 1-583: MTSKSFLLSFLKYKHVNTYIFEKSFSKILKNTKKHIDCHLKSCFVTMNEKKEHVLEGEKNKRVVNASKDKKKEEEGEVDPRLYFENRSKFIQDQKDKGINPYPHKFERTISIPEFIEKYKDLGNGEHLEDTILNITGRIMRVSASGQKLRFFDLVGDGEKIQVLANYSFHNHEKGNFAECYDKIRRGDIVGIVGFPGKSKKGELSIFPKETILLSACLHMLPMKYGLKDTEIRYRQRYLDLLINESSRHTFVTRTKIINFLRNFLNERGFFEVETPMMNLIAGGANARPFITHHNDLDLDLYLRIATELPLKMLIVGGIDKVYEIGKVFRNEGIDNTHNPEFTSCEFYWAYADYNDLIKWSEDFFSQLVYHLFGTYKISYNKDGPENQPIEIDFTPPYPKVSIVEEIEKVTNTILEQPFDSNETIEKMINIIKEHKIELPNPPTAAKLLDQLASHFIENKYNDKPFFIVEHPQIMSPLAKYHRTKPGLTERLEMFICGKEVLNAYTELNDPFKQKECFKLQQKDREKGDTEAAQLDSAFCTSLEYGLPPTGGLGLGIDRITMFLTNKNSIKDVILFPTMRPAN
UniProt P9WPC5, whole entry: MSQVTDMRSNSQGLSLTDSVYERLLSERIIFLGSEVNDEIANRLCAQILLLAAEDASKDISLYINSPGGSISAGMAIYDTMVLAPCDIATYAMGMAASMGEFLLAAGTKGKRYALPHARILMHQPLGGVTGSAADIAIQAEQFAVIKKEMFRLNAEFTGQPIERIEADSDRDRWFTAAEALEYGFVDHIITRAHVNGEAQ
UniProt P9WPC3, whole entry partner: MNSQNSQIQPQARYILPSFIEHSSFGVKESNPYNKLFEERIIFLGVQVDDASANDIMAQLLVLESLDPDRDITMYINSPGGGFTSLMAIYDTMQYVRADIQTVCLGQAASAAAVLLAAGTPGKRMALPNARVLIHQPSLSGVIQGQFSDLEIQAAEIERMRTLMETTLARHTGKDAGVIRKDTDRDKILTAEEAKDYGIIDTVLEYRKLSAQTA
UniProt P9WFT3, whole entry: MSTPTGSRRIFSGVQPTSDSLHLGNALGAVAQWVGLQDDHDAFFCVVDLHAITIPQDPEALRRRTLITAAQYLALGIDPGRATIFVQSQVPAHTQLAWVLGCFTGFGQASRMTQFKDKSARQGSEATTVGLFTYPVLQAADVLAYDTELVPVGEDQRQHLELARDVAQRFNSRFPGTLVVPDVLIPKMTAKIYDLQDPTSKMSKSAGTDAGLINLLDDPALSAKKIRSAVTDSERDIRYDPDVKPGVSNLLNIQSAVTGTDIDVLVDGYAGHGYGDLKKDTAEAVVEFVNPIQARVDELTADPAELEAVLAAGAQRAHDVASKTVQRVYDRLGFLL

Results are given as percent effect.
The controls that fix the scale are not given in the record; negative values are as filed.
The compounds are a random part of those screened.
A dash means the value is not listed here; it may have been measured.

A: 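Lysine-tRNA ligase, Plasmodium falciparum 3D7 (UniProt Q8IDJ8). Enzyme assay of the cytosolic lysyl-tRNA synthetase in 384-well plates, read by luminescence. Compounds at 30 µM. Higher reads as stronger inhibition, judged from the few compounds that gave an IC50. Of about 69,000 compounds tested this way, about 49 (0.071%) reached 50% or more in at least one test.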
B: 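Protease assay of ClpP1P2, read by the AMC dye that it sets free. Target: ClpP1P2, Mycobacterium tuberculosis (UniProt P9WPC5 and UniProt P9WPC3). Tested at 50 µM. Direction is inferred from only a few compounds that gave an IC50; most scored high, so higher reads as stronger inhibition. Most other retested compounds had strongly negative values. Of about 69,000 compounds tested this way, about 10 (0.015%) reached 50% or more in at least one test.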
C: 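Enzyme assay of tryptophanyl-tRNA synthetase; the read-out is not stated. Target: Tryptophan-tRNA ligase, Mycobacterium tuberculosis (UniProt P9WFT3). Concentration: 10 µM. Higher most likely means stronger inhibition; the record gives no direction and few retests gave an IC50. Of about 65,000 compounds tested this way, about 64 (0.098%) reached 50% or more in at least one test.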

| Compound | A | B | C |
|---|---|---|---|
| `Cc1cc(C(F)(F)F)nc(CCNC(C)Cn2ccnc2)n1` (centres undefined) | 1.35 | 0.4427 | -0.5825 |
| `CCN1CCC2(CC1)CC(Nc1ncccn1)CO2` (centres undefined) | 4.998 | 2.125 | -3.752 |
| `CN1CCC(CCNC(=O)c2ccc(N(C)S(C)(=O)=O)cc2Cl)CC1` | -1.554 | -14.43 | 0.2486 |
| `O=C(c1ccc(OCC2CC2)cc1)N1CCOCC1c1ncon1` (centres undefined) | -1.375 | 0.3177 | -0.6686 |
| `CC(C)CN1CCC2(CCN(Cc3ccoc3)CC2)C1=O` | 0.1636 | 20.37 | 2.672 |
| `Cc1cc(C(F)(F)F)cc(=O)n1CCn1cc(Cl)cn1` | 5.624 | -21.59 | 0 |
| `Cc1cc(C)n(CC2CCCCN2C(=O)c2ccc3nncn3c2)n1` (centres undefined) | 2.979 | -1.799 | -1.774 |
| `CCC(C)NC(=O)CS(=O)(=O)Cc1ccccc1Cl` (centres undefined) | 8.631 | 10.88 | 2.427 |
| `Cc1sc2nc(C(F)(F)F)nc(N3CCN(C)CC3)c2c1C` | 1.402 | 11.6 | -2.727 |
| `Cc1nc(C)n(CC2CCCN(Cc3nc(C)c(C)o3)C2)n1` (centres undefined) | 5.25 | 14.79 | 2.739 |
| `CCN(CC)CC1CN(Cc2ccco2)Cc2nccn2C1` (centres undefined) | 2.054 | 6.561 | 2.415 |
| `COc1cc(N2CCCC(c3nccn3Cc3cccnc3)C2)ncn1` (centres undefined) | 1.947 | -5.95 | 1.937 |
| `Cc1ccc(CNC2CCN(CCc3ccncc3)CC2)cc1C` | 6.419 | -4.123 | -0.3752 |
| `CS(=O)(=O)c1ccc2c(c1)N(C(=O)Cc1ccc(F)cc1)CCC2` | -2.839 | 3.866 | 4.739 |
| `COc1ccccc1CN1CC[C@H]2[C@@H](C1)[C@H](c1ccsc1)CN2C(C)=O` | 1.329 | 13.15 | - |
| `O=C(c1ccc(Cl)cc1)N1CCn2c(nn(-c3ccc(Cl)cc3)c2=O)C1` | 3.852 | 18.23 | -9.594 |
| `Cn1ncc(Cl)c1C(=O)N1CCC(c2nnsc2S(C)(=O)=O)CC1` | 0.3699 | 26.81 | -2.764 |
| `CC(=O)N1CCC(N2CC[C@H](c3nc4cc(F)ccc4o3)C2)CC1` | 10.43 | -5.12 | -0.3814 |
| `CCc1ncc2c(n1)CN(CC(=O)Nc1nncs1)CC2` | 0.9859 | -53.19 | -0.6555 |
| `Cc1cccc(N2CCN(CCNC(=O)C(C)n3cncn3)CC2)c1` (centres undefined) | 4.835 | 15.59 | -2.437 |
| `Cc1cc(NCC2CCCO2)cc(=O)n1C` (centres undefined) | 5.18 | 5.748 | - |
| `CNc1cc(C2CN(Cc3csc(C)n3)CCO2)nc(C)n1` (centres undefined) | -1.428 | -8.235 | 8.784 |
| `CCc1nnsc1C(=O)N1CCCN(Cc2ccc(F)cc2)CC1` | 5.237 | 4.657 | 2.522 |
| `CC1N(CC2CC2)C(=O)COC12CCN(C(=O)c1cscn1)CC2` (centres undefined) | 2.232 | -7.208 | -0.8721 |
| `CC(C1CC1)N(C)Cc1nnc(-c2ccco2)o1` (centres undefined) | 1.262 | 6.743 | -0.4295 |
| `CC(=O)NCC(=O)N1Cc2nccn2CC(COc2cccnc2)C1` (centres undefined) | -0.2359 | -18.25 | -0.6206 |
| `CCN1CCOCC2(CCCN(C(=O)c3ccncc3F)C2)C1` (centres undefined) | 2.881 | 18.69 | 2.322 |
| `N#Cc1ccc(C(=O)N2CC[C@H]3[C@@H]2CCC(=O)N3c2cccnc2)cc1` | 7.463 | 8.264 | 4.272 |
| `CCOc1ccc(Cl)c(C(=O)N2CCN(C(=O)c3ccoc3C)CC2)n1` | 2.933 | 9.142 | 0.7194 |
| `CC(C)NC(=O)c1cccc(Oc2ccc3nncn3n2)c1` | -2.128 | 23.37 | 1.359 |
| `Cc1nc(C2(O)CCCNCC2)sc1CCOc1ccccc1Cl` (centres undefined) | 1.042 | -5.698 | - |
| `CCc1nc(CN(C)C(=O)NCc2cccc(NC(C)=O)c2)cs1` | 3.112 | 1.339 | -2.437 |
| `O=C(c1ccc2nccn2c1)N1CCCC1c1noc(C2CC2)n1` (centres undefined) | 0.8216 | -2.838 | -0.5623 |
| `CC(C)CS(=O)(=O)CC(=O)N1CCCC1c1noc(C2CC2)n1` (centres undefined) | -4.777 | -13.63 | -5.607 |
| `CCN(Cc1ccoc1)C(=O)c1cc2c(c(S(N)(=O)=O)c1)CCC2` | -1.955 | 0.04144 | -0.4955 |
| `COCCc1noc(CN(C)c2nc(C)cc(C)n2)n1` | 0.7684 | 1.588 | -3.915 |
| `COc1cc(NC2CCS(=O)(=O)C2)ncn1` (centres undefined) | -1.8 | -13.47 | 3.943 |
| `Cn1cc(N2CC3(CCN(Cc4nccs4)CC3)OCC2=O)cn1` | -0.8597 | 13 | 1.521 |
| `Fc1cnc(N2CCN3C[C@H](Oc4cncnc4)C[C@H]3C2)nc1` | 5.224 | 1.288 | - |
| `O=C(c1sccc1Br)N(Cc1cccnc1)C1CC1` | -0.02008 | -18.81 | -1.07 |
| `Cc1nc(C2CCCN(C(=O)c3ccc(Cn4cccn4)o3)C2)no1` (centres undefined) | 1.194 | -7.204 | -1.679 |
| `CC(C)c1nnc2n1CCN(C(=O)c1cccc(S(C)(=O)=O)c1)C2` | -1.406 | -12.59 | -2.726 |
| `O=c1c(-c2ccnc(NC3CCCCC3)n2)cnc2sc(Cl)cn12` | 1.718 | -1.591 | - |
| `CSCc1cc(F)ccc1CNCc1ccncc1` | 2.286 | 12.23 | -3.312 |
| `CC(C)CCN1C[C@@H]2OCCN(c3ncc(F)cn3)[C@@H]2C1` | 1.713 | -2.058 | -8.076 |
| `Cc1nc(CO[C@H]2CN(C(=O)c3cccnc3)[C@@H]3COC[C@H]23)cs1` | 3.981 | -6.716 | 2.698 |
| `CNC(=O)c1cccc(CCNc2ccccn2)c1` | 1.842 | -0.7369 | 0.1874 |
| `CC1(C)CN(C(=O)CC2CCC2)C[C@]1(C)O` | 3.713 | -1.568 | -3.271 |
| `Cc1nc([C@@H]2C[C@@H]3CCN(C(=O)c4ccsc4)C[C@H]3O2)no1` | 5.516 | -3.259 | 1.046 |
| `CC(C)c1nccc([C@@H]2C[C@@H]3CCN(Cc4ccco4)C[C@H]3O2)n1` | -2.531 | 10.68 | -2.092 |
| `Cc1ccc(C)c(OCc2nnc(SCC3CCCN(C)C3)o2)c1` (centres undefined) | 5.676 | 4.785 | -1.349 |
| `c1cc(CN2CCC3(CC2)CC(N2CCCC2)CO3)co1` (centres undefined) | 1.675 | -11.36 | -4.77 |
| `NC(=O)NC1(C(=O)N2CCc3c(Cl)cccc3C2)CCCCC1` | 5.266 | -4.099 | -1.398 |
| `O=C(c1ccc(F)cc1)N1CC[C@H]2[C@H]1CCN2CC1CC1` | 1.288 | -2.945 | -5.959 |
| `COc1ccc(Nc2cc(C)nc(C)n2)cc1N1CCCC1=O` | 7.941 | -0.8268 | -1.874 |
| `CCN1C(=O)CCC12CCCN(Cc1nccs1)CC2` (centres undefined) | 4.397 | 5.4 | 1.938 |
| `O=C(CSCC1CC1)N1CCc2[nH]nc(COc3ccccc3)c2C1` | -2.465 | -5.002 | 4.32 |
| `c1ccc(CN2C[C@@H]3COC[C@]3(COCC3CCOCC3)C2)nc1` | -0.02133 | 4.25 | -2.467 |
| `CN1CCN(C2CCN(C(=O)CCC3CCCC3)CC2)CC1` | 2.891 | -12.23 | -2.709 |
| `CCC(CC)n1nc(C)cc1NC(=O)C1CCCO1` (centres undefined) | 2.958 | 3.113 | -0.5948 |
| `CCc1nc(CCNc2ncccn2)sc1C` | 1.871 | 9.392 | -1.891 |
| `COc1ccc2c(ccn2CC(=O)N2CCCC2c2cnn(C)c2)c1` (centres undefined) | 1.46 | 0.5464 | -2.618 |
| `OC[C@@H]1[C@H]2CN(c3ccccn3)CCN2C[C@H]1c1ccccc1` | 1.727 | -3.454 | - |
| `CCN(CC)c1nc2ccsc2c(=O)n1CCC(=O)NCc1ccco1` | -1.253 | -15.7 | 5.112 |
| `Cc1nc(CCNC(=O)NCC(c2ccco2)N(C)C)cs1` (centres undefined) | -1.125 | -5.633 | -1.503 |
| `COc1cccc(CC(=O)N2CCc3ncnc(C)c3CC2)c1` | 0.8014 | -6.641 | -1.402 |
| `O=C1CC(c2ccc(O)cc2)c2c(c(C(=O)O)cn2-c2ccccc2)N1` (centres undefined) | 19.4 | 5.602 | 20.22 |
| `c1cc(-c2n[nH]cc2-c2ccnc(N3CCCCCC3)n2)ccn1` | 5.761 | -7.958 | - |
| `Cc1cnc(C(=O)N2CCCC(Cn3cc(C4CC4)nn3)C2)cn1` (centres undefined) | 1.749 | -8.233 | -1.528 |
| `O=C(c1cc(F)cc2[nH]cnc12)N1CCCC1Cn1cccn1` (centres undefined) | 5.855 | -0.7969 | -7.407 |
| `CCOc1ccc(CN2CCN(CCOC)[C@@H]3CS(=O)(=O)C[C@@H]32)cc1` | 10.37 | 1.06 | -1.458 |
| `CC(C)CCN1CCc2cc(C(=O)N(C)C)c(NCC3CC3)nc2CC1` | 0.0463 | -13.94 | -6.624 |

For reference, 6 entries once more:

{"compound": "CC(C)c1nnc2n1CCN(C(=O)c1cccc(S(C)(=O)=O)c1)C2", "A": -1.406, "B": -12.59, "C": -2.726}
{"compound": "CNc1cc(C2CN(Cc3csc(C)n3)CCO2)nc(C)n1", "stereo": "centres undefined", "A": -1.428, "B": -8.235, "C": 8.784}
{"compound": "CC(C)CCN1C[C@@H]2OCCN(c3ncc(F)cn3)[C@@H]2C1", "A": 1.713, "B": -2.058, "C": -8.076}
{"compound": "Cc1nc(C2CCCN(C(=O)c3ccc(Cn4cccn4)o3)C2)no1", "stereo": "centres undefined", "A": 1.194, "B": -7.204, "C": -1.679}
{"compound": "Cc1nc(CO[C@H]2CN(C(=O)c3cccnc3)[C@@H]3COC[C@H]23)cs1", "A": 3.981, "B": -6.716, "C": 2.698}
{"compound": "OC[C@@H]1[C@H]2CN(c3ccccn3)CCN2C[C@H]1c1ccccc1", "A": 1.727, "B": -3.454}